Reference: patent publication US20130337438A1
Results are given in words; binding and its absence hold for the method and conditions named.

Molecular target: capsid consisting only of L1 (human papillomavirus, type not stated)
Assay: ELISA on immobilized L1-only capsid, purified antibody

B1: monoclonal antibody 13B (antibody, V domains shown)
VH: DVQLQESGPGLVKPSQSLSLSCTVTGYSITSDSAWNWIRQFPGNKLEWMGYITFSGSTNYNPSLKSRLSITRDTSKNQFFLQLNSVTTEDTATYYCTGPFLDYWGQGTTLTVSS
VL: DVVMTQTPLSLPVSLGDQATISCRSSLSLVLSNRITYLQWYLQKPGQSPKLLIYKVSNRFSGVPDRFSGSGSGTDFTLKISRVEAEDLGVYFCSQSSHFPWTFGGGTKLEIKR
- binding: no binding (tested: 250 ng/well)
